Assay results as given in paper PMC7862700.
Only a part is listed here, and it is no random draw. For some assays here: At the low end of the ranking the order means little. The list shows a part of the results. For some assays here: The source does not settle which construct or isoform was used.

The sequences below were run against T1, ETS1 (UniProt P14921) (assay: DAPPL (digital affinity profiling via proximity ligation, sequencing)). Conditions: 10 mM Tris-HCl pH 7.5, 50 mM NaCl, 1 mM DTT, 4% glycerol, room temperature, 30 min; GST-TFs on glutathione beads, 16-mer random dsDNA library, 0.1% …; high values mean tight binding; double strand, one strand shown; scale: fold enrichment (6-mer frequency, TF over GST control).
T1 sequence: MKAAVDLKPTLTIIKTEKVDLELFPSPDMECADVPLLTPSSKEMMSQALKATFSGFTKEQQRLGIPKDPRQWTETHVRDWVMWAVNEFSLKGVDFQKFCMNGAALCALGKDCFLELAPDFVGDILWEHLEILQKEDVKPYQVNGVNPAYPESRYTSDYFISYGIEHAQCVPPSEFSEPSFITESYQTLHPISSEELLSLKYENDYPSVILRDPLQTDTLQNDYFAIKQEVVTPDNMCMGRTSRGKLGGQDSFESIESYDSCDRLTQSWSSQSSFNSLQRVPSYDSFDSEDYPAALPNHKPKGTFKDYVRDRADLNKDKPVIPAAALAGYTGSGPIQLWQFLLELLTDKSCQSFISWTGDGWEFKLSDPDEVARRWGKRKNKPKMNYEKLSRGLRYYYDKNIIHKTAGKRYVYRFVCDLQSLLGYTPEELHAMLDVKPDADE

| Sequence | binding signal |
| --- | --- |
| ACCGAA | 1.04 |
| GCTCGC | 1.36 |
| GATTTT | 1.14 |
| CCTCTT | 1.54 |
| CGATTC | 1.15 |
| ATACTA | 1.23 |
| TGGTAG | 1.1 |
| CCGCCC | 1.36 |
| TAACCC | 1.33 |
| TAACTC | 1.26 |
| CTACTC | 1.39 |
| AACATC | 1.49 |
| TGTTAA | 1.17 |
| TATCAG | 1.13 |
| TGGACC | 1.02 |
| GCTTTC | 1.17 |
| TGGATG | 1.49 |
| CTTGCC | 1.41 |
| TGAACC | 1.06 |
| AACAGC | 1.11 |

| Sequence | binding signal |
| --- | --- |
| TCTTGC | 1.42 |
| TCACTT | 1.78 |
| GCACCC | 1.26 |
| TCTTAG | 1.21 |
| CTCACT | 1.55 |
| TTAGGG | 1.12 |
| CTGGGT | 1.21 |
| TATGCG | 1.33 |
| CCTGGG | 1.2 |
| GAATAA | 1.14 |
| TCAATA | 1.17 |
| GTTTGG | 1.05 |
| TATTCC | 1.53 |
| ATGGCC | 1.51 |
| AAGCAC | 1.16 |
| CTTAGG | 1.05 |
| ATCGTC | 1.08 |
| AAAGGT | 1.13 |
| ATGGTT | 1.38 |
| AGCCCC | 1.11 |

Each sequence was assayed against T2, SPDEF (UniProt O95238) in the same assay as above. Conditions: 10 mM Tris-HCl pH 7.5, 50 mM NaCl, 1 mM DTT, 4% glycerol, room temperature, 30 min; GST-TFs on glutathione beads, 16-mer random dsDNA library, 0.1% …; high values mean tight binding; double strand, one strand shown; scale: fold enrichment (6-mer frequency, TF over GST control).
T2 sequence: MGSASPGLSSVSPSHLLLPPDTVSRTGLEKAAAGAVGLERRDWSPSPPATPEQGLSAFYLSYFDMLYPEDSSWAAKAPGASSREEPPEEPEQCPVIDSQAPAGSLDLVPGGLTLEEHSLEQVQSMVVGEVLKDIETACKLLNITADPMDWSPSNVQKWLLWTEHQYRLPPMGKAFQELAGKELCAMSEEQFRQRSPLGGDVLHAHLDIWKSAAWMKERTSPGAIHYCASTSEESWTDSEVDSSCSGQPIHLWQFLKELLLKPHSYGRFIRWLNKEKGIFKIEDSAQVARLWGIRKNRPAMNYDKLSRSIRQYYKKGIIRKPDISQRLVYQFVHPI

| Sequence | binding signal |
| --- | --- |
| ACCGAA | 0.969 |
| GCTCGC | 1.29 |
| GATTTT | 1.14 |
| CCTCTT | 1.57 |
| CGATTC | 1.13 |
| ATACTA | 1.17 |
| TGGTAG | 0.995 |
| CCGCCC | 1.27 |
| TAACCC | 1.32 |
| TAACTC | 1.23 |
| CTACTC | 1.29 |
| AACATC | 1.68 |
| TGTTAA | 1.09 |
| TATCAG | 1.26 |
| TGGACC | 1.05 |
| GCTTTC | 1.18 |
| TGGATG | 1.53 |
| CTTGCC | 1.44 |
| TGAACC | 1.16 |
| AACAGC | 0.961 |

| Sequence | binding signal |
| --- | --- |
| TCTTGC | 1.33 |
| TCACTT | 1.73 |
| GCACCC | 1.17 |
| TCTTAG | 1.24 |
| CTCACT | 1.44 |
| TTAGGG | 1.18 |
| CTGGGT | 1.08 |
| TATGCG | 1.36 |
| CCTGGG | 1.11 |
| GAATAA | 1.09 |
| TCAATA | 1.17 |
| GTTTGG | 0.94 |
| TATTCC | 1.83 |
| ATGGCC | 1.32 |
| AAGCAC | 1.29 |
| CTTAGG | 1.06 |
| ATCGTC | 1.05 |
| AAAGGT | 1.11 |
| ATGGTT | 1.18 |
| AGCCCC | 0.97 |
